Measurements reported in US11266663B2, “Treatment of neuropsychiatric disorders with neurosteroids and analogues thereof” (THE BOARD OF TRUSTEES OF THE UNIVERSITY OF ILLINOIS, priority 2017, dated 2022).
Values joined by “and” are separate entries in the source; they are usually repeats but may differ in a detail not shown here. Equal values may be shown once.

Test system: early and late adolescent SI mice
Assay: Resident-intruder test, aggressive behavior of socially isolated (SI) mice
Format: in vivo, Swiss-Webster mice
Conditions: for “Non-responders” Early SI mice (%) / “Non-responders” Late SI mice (%): decrease of aggression <=30% vs basal; for EC50 dose, decrease of aggression: i.p., 60 min before test
Source text: Male Swiss-Webster mice (Harlan Breeders) (18-30 g body weight), maintained under a 12-h dark/light cycle with food and water ad libitum were used for all experiments. Mice were housed individually in a cage of dimensions 24 cm×17 cm×12 cm. For these experiments, two mice experimental groups were used for the study of drug effect in different age conditions. The first group was isolated at 21 days (“early adolescent SI mice,” PND 21), while the second group at 45 days (“late adolescent SI mice,” PND 45). The animals were exposed to behavioral testing after 6 weeks of isolation. The vivarium temperature was kept at 24° C. and the humidity near 65%.
[…] All the drugs were dissolved in saline solution containing 0.5% Tween-80 (Sigma Aldrich, St. Louis, Mo., United States), and were injected intraperitoneally (i.p.), 60 min before behavioral tests.
To test aggression, a male intruder mouse of the same strain as the resident mouse, was placed in a resident home cage (24 cm×17 cm×12 cm) and resident-intruder interactions were videotaped for 10 min. Aggressive behavior of SI mice was characterized by an initial pattern of exploratory activity around the intruder, followed by rearing and tail rattle, accompanied within a few seconds by wrestling and/or a violent biting attacks. The total number of wrestling and attacks during the 10 min observation period was measured as previously described (Pinna et al., 2003, 2005), 60 min after drug administration. For every drug studied, SI mice were first exposed to three behavioral sessions, and then the average of basal aggression level for every single SI mouse was calculated; 2 days later, aggression levels following treatment were tested. Treated animals showing a reduction of the number of attacks less than 30% vs. the respective basal control values were considered as “low- to non-responders.”
Results are presented as means±SEMs unless otherwise indicated. Student's t-test, one-way ANOVA and two-way ANOVA repeated measures followed by Bonferroni post hoc test were performed to analyze experimental data; significance was set at p<0.05. EC50 values were calculated from dose-response curves analyzed by the “quantal dose-response: probits test” using the computer program of Tallarida and Murray equipped with a statistical package (Tallarida and Murray, 1987). Statistical comparisons among the different ECsos were performed with the “cohort package software.” (available at cohort.com).

[1] = single dose 0.375 mg/kg (given in mg)
[2] = single dose 0.75 mg/kg (given in mg)
[3] = single dose 1.5 mg/kg (given in mg), 1.5 mg/kg

CNCC[C@H](Oc1ccc(C(F)(F)F)cc1)c1ccccc1 [S-FLX, S-fluoxetine, reference compound]
difference of anti-aggressive effect, late compared with early SI mice (1.5 mg/kg i.p.): +316%
“Non-responders” Early SI mice (%) [1]: 64.3%
“Non-responders” Early SI mice (%) [2]: 53.3%
“Non-responders” Early SI mice (%) [3]: 22.22% and 22.2%
EC50 dose, decrease of aggression (early adolescent SI mice (PND 21)): > 1.5 mg/kg
“Non-responders” Late SI mice (%) [1]: 64.3%
“Non-responders” Late SI mice (%) [2]: 23.1%
“Non-responders” Late SI mice (%) [3]: 11.64% and 11.8%
EC50 dose, decrease of aggression (late adolescent SI mice (PND 45)): 0.85 mg/kg
